Source: PubChem BioAssay AID493014 (National Center for Advancing Translational Sciences (NCATS), 2011)
About 170 (0.05%) of roughly 340,000 compounds were called active. Inconclusive results, whose numbers are uncertain, are shown with a selection of clear calls. Calls follow the shape of the dose curve; as a rule, active = well fitted inhibition curve with a large enough effect in the signal ratio, with a control signal flat (not every such curve was filed as active); inconclusive = small, poorly fitted or top-dose-only effect, or effect the other way, or a change in a side signal; inactive = flat fitted curve, though single readings scatter; the % refers to the signal ratio. Potencies beside an inconclusive call are fits to weak or partial responses and may not hold up.

test: qHTS Assay to Find Inhibitors of Chronic Active B-Cell Receptor Signaling; details: ABC-DLBCL IkBa-CBG/CBR reporter, luminescence ratio (green luciferase fused to IkBa over red control in TMD8 lymphoma cells), 4 h; activity change, negative = inhibition: at 46.1 µM (top of the series);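 as to activity change, negative = inhibition: plate controls were basal doxycycline-induced cells for no effect and cells given 10 µM MG132 for full effect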
Method in brief: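 Doxycycline induced both beetle luciferases in TMD8 lymphoma cells; IKK-driven degradation limits the IkappaBalpha-fused green signal, while red luminescence normalises for cell number and nonspecific effects. Compounds tested up to 46 uM, 4 hrs.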
Potency is read from the fitted curve at half-maximal effect.

Row | SMILES | activity change, negative = inhibition | Potency
1 | CC(=O)NNC(=S)NC(=O)c1cccc([N+](=O)[O-])c1 | inconclusive: 3.32% | 
2 | COc1ccc(CCNC(=O)CSc2nc(N)c(C#N)c(-c3cccs3)c2C#N)cc1OC | inconclusive: 3.3% | 
3 | Cn1ccnc1SCC(=O)Nc1ccc(Cl)cn1 |  | inconclusive: 15.8 µM [falling, single point]
4 | Cc1ccc(C)c(-n2c(-c3csc(C)c3C)n[nH]c2=S)c1 | inconclusive: -0.236% | 
5 | Cn1cc([N+](=O)[O-])c(C(=O)Nc2ccn(C34CC5CC(CC(C5)C3)C4)n2)n1 | inactive: 1.69% | 
6 | Cc1ccc(N(Cc2cc3ccccc3[nH]c2=O)C(=O)c2ccco2)c(C)c1 | inconclusive: -9.5% | 
7 | Cc1ccccc1OCC(=O)N/N=C1\CCOc2c(C)cccc21 | inconclusive: 18.3% | 
8 | O=C(CSCC(=O)N1CCCCC1)Nc1nc(-c2ccccc2)c(-c2ccccc2)s1 | inconclusive: -0.7% | 
9 | CNC(=O)CSc1nnc(-c2cccs2)o1 | inconclusive: 3.68% | 
10 | O=C(NCc1ccccc1Cl)NCc1ccccc1Cl |  | inconclusive: 11.2 µM [falling, partial curve, poor fit]
11 | CCOC(=O)c1ccc(N2C(=O)CC(Nc3ccc(O)cc3)C2=O)cc1 (configuration not stated) | inconclusive: 0.504% | 
12 | COc1ccc(/C=N/N(C)C2=NS(=O)(=O)c3ccccc32)cc1 | inactive: -2.13% | 
13 | CCCC(=O)N(c1ccc2oc(C)c(C(C)=O)c2c1)S(=O)(=O)c1ccc(C)cc1 | inconclusive: -0.503% | 
14 | COc1ccc(/C=C2/Sc3ccc(C(=O)NCCN4CCCCCC4)cc3NC2=O)cc1 | inactive: 9.53% | 
15 | CSc1ccc(NC(=O)N2CCN(c3nc4ccccc4s3)CC2)cc1 | inconclusive: 2.65% | 
16 | CCCc1nc2nc(C)c(NS(=O)(=O)c3ccc(C4CCCCC4)cc3)c(=O)n2[nH]1 | inconclusive: 14.6% | 
17 | Cn1nnnc1Sc1ncnc2scc(-c3ccccc3Cl)c12 |  | inconclusive: 3.26 µM [falling, partial curve, poor fit]
18 | Cc1ccc(N2C(N)=C(C#N)C(c3ccsc3)C3=C2CC(C)(C)CC3=O)cc1 (configuration not stated) | inactive: 12.8% | 
19 | CNC(=S)/N=C(/Nc1ccccc1)c1ccccc1 | inactive: -11.6% | 
20 | O=C(N/N=C/c1ccc(O)cc1O)/C(=C/c1ccccc1)CCO |  | inconclusive: 2.91 µM [falling, full curve]
21 | COC(=O)c1cc2c(ccn2C)n1C |  | inconclusive: 3.16 µM [falling, partial curve, poor fit]

Part of the list above, reformatted:
Cc1ccccc1OCC(=O)N/N=C1\CCOc2c(C)cccc21
  activity change, negative = inhibition: inconclusive: 18.3%
CNC(=O)CSc1nnc(-c2cccs2)o1
  activity change, negative = inhibition: inconclusive: 3.68%
CCCC(=O)N(c1ccc2oc(C)c(C(C)=O)c2c1)S(=O)(=O)c1ccc(C)cc1
  activity change, negative = inhibition: inconclusive: -0.503%
CCCc1nc2nc(C)c(NS(=O)(=O)c3ccc(C4CCCCC4)cc3)c(=O)n2[nH]1
  activity change, negative = inhibition: inconclusive: 14.6%

More entries follow.

Row | SMILES | activity change, negative = inhibition | Potency
22 | Cc1ccc(Nc2nc(-c3sc(C)nc3C)cs2)cc1 |  | inconclusive: 15.8 µM [falling, single point]
23 | COc1ccc(/C=C2\SC(=S)N(CCC(=O)Nc3ccc(O)cc3)C2=O)cc1 |  | inconclusive: 35.5 µM [rising, single point]
24 | Cc1cc(NC(=O)c2ccccc2)nc2c1c(=O)oc1ccccc12 | inconclusive: 6.69% | 
25 | COc1ccc(NC(=O)C(=O)NNC(=O)c2cccs2)cc1 |  | inconclusive: 18.4 µM [falling, partial curve]
26 | CC(=O)c1sc2nsc(SCCN3CCCCC3)c2c1N | inconclusive: 10.6% | 
27 | COc1ccc(Nc2nnc(-c3ccc(C(N)=O)cc3)c3ccccc23)cc1 |  | inconclusive: 17.8 µM [falling, partial curve]
28 | COc1cc(OC)cc(C(=O)NNC(=O)c2cc3ccccc3cc2O)c1 | inconclusive: -14.3% | 
29 | O=C(N/N=C/c1ccc(N2CCOCC2)s1)c1ccccc1Br |  | inconclusive: 12.6 µM [falling, partial curve]
30 | Nc1nonc1N/N=C/c1c(O)ccc2ccccc12 | inactive: 7.91% | 
31 | Oc1c(C=Nc2ccccc2Cl)[nH]c2ccccc12 |  | inconclusive: 35.5 µM [falling, single point]
32 | O=C(N/N=C/C=C\c1ccccc1)c1cnccn1 | inconclusive: -18.8% | 
33 | Cc1cccc(NC(=O)NC2CC(=O)N(c3ccc4c(c3)OCCO4)C2)n1 (configuration not stated) |  | inconclusive: 6.31 µM [falling, partial curve]
34 | CN1C(C(=O)Nc2ccccn2)=C(O)c2sccc2S1(=O)=O |  | inconclusive: 35.5 µM [falling, single point]
35 | COc1cc(OC)c(C(=O)Nc2ccccc2-c2ccccc2)cc1OC | inconclusive: 0.673% | 
36 | CCOc1ccccc1C(=O)N[C@H](C(=O)OCc1csc(CC(=O)Nc2ccc(C)cc2)n1)C(C)C |  | inconclusive: 23.1 µM [falling, partial curve, poor fit]
37 | NC(=O)c1ccc(NC(=O)CN2C(=O)NC(c3ccccc3)(c3ccccc3)C2=O)cc1 | inactive: 1.16% | 
38 | COc1ccc(CNC(=O)C(c2ccco2)N(Cc2cccs2)C(=O)Cc2cccs2)cc1 (configuration not stated) | inconclusive: 7.66% | 
39 | CN(CCN1CCOCC1)C(=O)c1cc(COc2ccc(F)c(F)c2)on1 | inactive: 0.299% | 
40 | O=C(NCCCCc1ccccc1)NC[C@@H]1CC[C@@H](Cc2ccc(-c3ccccc3)cc2)O1 | inactive: -14.9% | 
41 | COc1ccc(-c2[nH]ncc2N=Nc2cc(C)cc(C)c2)cc1 | inconclusive: 8.53% | 
42 | CCCC(CCC)C(=O)Nc1ccncc1 | inactive: 3.41% | 

Row | SMILES | activity change, negative = inhibition | Potency
43 | Cc1nc(-c2ccc(S(=O)(=O)N3CCCN(CCc4ccccc4)CC3)s2)cs1 | inactive: -0.659% | 
44 | COc1ccc(C2=NN(C(=O)c3cccs3)C(O)(C(F)(F)F)C2)cc1 (configuration not stated) | inconclusive: -9.71% | 
45 | O=c1[nH]c(CN2CCN(S(=O)(=O)c3ccccc3C(F)(F)F)CC2)nc2sc3c(c12)CCCC3 | inactive: 0.029% | 
46 | CCOC(=O)c1cccc(OC(=O)CCNC(=O)c2ccc(Cl)cc2)c1 | inconclusive: 7.48% | 
47 | O=C(CN1C(=O)S/C(=C/c2ccncc2)C1=O)N1CCOCC1 | inconclusive: -16.6% | 
48 | O=C(CC1NC(=O)NC1=O)Nc1ccc(Cl)cc1 (configuration not stated) | inconclusive: 1.74% | 
49 | O=C(COC(=O)c1cc(S(=O)(=O)N2CCCC2)ccc1O)Nc1ccccc1Br | inconclusive: 1.04% | 
50 | Cc1cc(NS(=O)(=O)c2ccc(NC(=O)NC(C)(C(F)(F)F)C(F)(F)F)cc2)no1 |  | inconclusive: 32.6 µM [falling, single point]
51 | COc1ccc(-c2nc(-c3ccccn3)no2)cc1 | inconclusive: 236% | 
52 | COc1cc(SC)ccc1C(=O)Nc1c(Cl)cncc1Cl | inconclusive: 7.56% | 
53 | Cc1cc(C(=O)Cn2cnc3cc(F)ccc3c2=O)c(C)n1C1CC1 | inconclusive: 5.44% | 
54 | Cc1nonc1C(=O)N/N=C/c1ccc(O)cc1 |  | inconclusive: 18.4 µM [falling, partial curve]
55 | Cc1cc(N/N=C\c2ccccc2)nc(-c2ccccc2O)n1 |  | inconclusive: 0.146 µM [rising, full curve]
56 | CCC1=C(OC(=O)N(CC)CC)N2C(=O)OC(=NCCc3c[nH]c4ccccc34)[C@]2(Cc2ccccc2)[C@H]2C1=CC[C@H]1C(=O)NC(=O)[C@H]12 | inconclusive: -12.5% | 
57 | CC(=O)OC(C(=O)Nc1nccs1)c1ccccc1 (configuration not stated) | inactive: 4.62% | 
58 | CSCC[C@H](N)C(=O)N1CCC(C(=O)N[C@@H](C)C(=O)NCc2ccc(F)cc2)CC1 | inactive: -1.85% | 
59 | CC(C)c1cc(C(C)C)n2nc(N)nc2n1 | inconclusive: 0.183% | 
60 | Cc1nc(NCc2ccco2)nc2c1C(=O)CC(C)C2 (configuration not stated) | inactive: 5.38% | 
61 | COC(=O)c1ccc(OCC(=O)NCCC2=CCCCC2)c(OC)c1 | inconclusive: -4.56% | 
62 | CCN(CC)c1ccc(NC(=O)CSc2nc3nc(C)cc(C)c3c(=O)[nH]2)cc1 | inconclusive: 5.39% | 
63 | CCCC(=O)N=C1SC2CS(=O)(=O)CC2N1c1ccc(-c2nc3ccc(C)cc3s2)cc1 (configuration not stated) | inactive: 16.5% | 

Structures above with a nitro group on carbon (two):
Row | SMILES | activity change, negative = inhibition | Potency
1 | CC(=O)NNC(=S)NC(=O)c1cccc([N+](=O)[O-])c1 | inconclusive: 3.32% | 
5 | Cn1cc([N+](=O)[O-])c(C(=O)Nc2ccn(C34CC5CC(CC(C5)C3)C4)n2)n1 | inactive: 1.69% | 

(more compounds)

Row | SMILES | activity change, negative = inhibition | Potency
64 | COc1cccc(NC(=O)CN(C)C(=O)CSc2ccc3c(c2)OCCO3)c1 |  | inconclusive: 29.1 µM [falling, partial curve, poor fit]
65 | COc1ccc(NC(=O)N(C)C[C@H]2Oc3c(NC(=O)Nc4ccc(C(F)(F)F)cc4)cccc3C(=O)N([C@H](C)CO)C[C@@H]2C)cc1 | inconclusive: -15.7% | 
66 | O=S(=O)(c1ccccc1F)N1CCC(Oc2ccc(-n3cnnn3)cc2)CC1 | inactive: -10.4% | 
67 | Cc1cc(CNC(=O)COc2ccccc2F)c2ccccc2n1 | inconclusive: -10.2% | 
68 | CCN(C(=O)CSc1nncn1-c1ccccc1)c1c(N)n(Cc2ccccc2)c(=O)[nH]c1=O | inconclusive: -2.58% | 
69 | O=c1[nH]cc(COCC(F)CCl)c(=O)[nH]1 (configuration not stated) | inconclusive: 0.469% | 
70 | Cc1cc(C(=O)COC(=O)c2ccc(Cl)c(S(N)(=O)=O)c2)c(C)n1C1CC1 | inactive: -6.72% | 
71 | C=CCn1cc(/C=N/Nc2nc3ccccc3[nH]2)c2ccccc21 | inconclusive: -10.9% | 
72 | Cc1nnc(N/N=C\c2ccc(-c3ccccc3[N+](=O)[O-])o2)n1N | inconclusive: -13.5% | 
73 | COc1cccc(N2C(=O)N(Cc3ccc(C#N)cc3)c3ccccc3S2(=O)=O)c1 | inactive: -1.4% | 
74 | Cc1ccccc1C(=O)Nc1ccccc1Sc1ccccc1 | inconclusive: 19.9% | 
75 | COCCN1CCN(C(=O)C2CCC(=O)N(CCc3ccccc3)C2)CC1 (configuration not stated) | inactive: 0.249% | 
76 | Cc1nc(SC2CCOC2=O)c2c(C)c(C)sc2n1 (configuration not stated) | inconclusive: -0.493% | 
77 | COc1ccc(-c2cnnc(N/N=C/c3ccc(-c4ccc([N+](=O)[O-])cc4)o3)n2)cc1 | inactive: -4.13% | 
78 | CN(C)c1ccc2nc3ccc(=[N+](C)C)cc-3sc2c1 | inconclusive: 2.15% | 
79 | COc1ccccc1NC(=O)CNC(=O)c1ccc(Br)o1 | inconclusive: -12.7% | 
80 | Cc1c(C(=O)N2CC(C)OC(C)C2)oc2ccccc12 (configuration not stated) | inconclusive: 5.03% | 
81 | COc1ccc(-c2cc(=O)n(-c3nc4ccccc4[nH]3)[nH]2)cc1 | inactive: 5.03% | 
82 | COc1cc(/C=C/C(=O)N2CCC=CC2=O)cc(OC)c1OC | inconclusive: 13.1% | 
